Test results taken from publication PMC13423814.
Like-named read-outs stand apart in the source and are kept apart here. These are yes or no findings as the source states them, for the method shown. Binding seen in cells or lysates may run through a third protein. Some entries that bind do so weakly or less than the wild type. For part of these data: Where a sequence is shown, tags or fusion partners need not be part of it.

Chains of the proteins cited; added tags and fusions are not shown.
UniProt P05777: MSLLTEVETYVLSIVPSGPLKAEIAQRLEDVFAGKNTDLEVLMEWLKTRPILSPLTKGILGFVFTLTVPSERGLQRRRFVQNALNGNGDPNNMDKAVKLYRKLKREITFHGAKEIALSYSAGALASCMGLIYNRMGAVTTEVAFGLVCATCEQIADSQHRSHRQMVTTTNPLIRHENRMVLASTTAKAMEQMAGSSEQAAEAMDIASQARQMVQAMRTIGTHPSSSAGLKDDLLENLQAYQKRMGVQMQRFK
UniProt P15682: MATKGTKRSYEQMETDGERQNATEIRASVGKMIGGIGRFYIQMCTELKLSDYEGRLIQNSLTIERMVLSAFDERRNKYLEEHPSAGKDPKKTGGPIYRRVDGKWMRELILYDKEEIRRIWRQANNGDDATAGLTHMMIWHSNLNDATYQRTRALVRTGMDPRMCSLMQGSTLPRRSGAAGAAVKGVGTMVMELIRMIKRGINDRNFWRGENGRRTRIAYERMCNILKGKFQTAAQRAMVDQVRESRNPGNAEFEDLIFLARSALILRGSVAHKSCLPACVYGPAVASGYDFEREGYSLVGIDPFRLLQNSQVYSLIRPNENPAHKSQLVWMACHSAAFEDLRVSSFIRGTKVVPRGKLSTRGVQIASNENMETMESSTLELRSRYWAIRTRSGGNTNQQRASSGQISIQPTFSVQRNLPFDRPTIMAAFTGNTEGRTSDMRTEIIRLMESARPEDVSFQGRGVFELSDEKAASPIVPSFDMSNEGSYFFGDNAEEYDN
UniProt P03427: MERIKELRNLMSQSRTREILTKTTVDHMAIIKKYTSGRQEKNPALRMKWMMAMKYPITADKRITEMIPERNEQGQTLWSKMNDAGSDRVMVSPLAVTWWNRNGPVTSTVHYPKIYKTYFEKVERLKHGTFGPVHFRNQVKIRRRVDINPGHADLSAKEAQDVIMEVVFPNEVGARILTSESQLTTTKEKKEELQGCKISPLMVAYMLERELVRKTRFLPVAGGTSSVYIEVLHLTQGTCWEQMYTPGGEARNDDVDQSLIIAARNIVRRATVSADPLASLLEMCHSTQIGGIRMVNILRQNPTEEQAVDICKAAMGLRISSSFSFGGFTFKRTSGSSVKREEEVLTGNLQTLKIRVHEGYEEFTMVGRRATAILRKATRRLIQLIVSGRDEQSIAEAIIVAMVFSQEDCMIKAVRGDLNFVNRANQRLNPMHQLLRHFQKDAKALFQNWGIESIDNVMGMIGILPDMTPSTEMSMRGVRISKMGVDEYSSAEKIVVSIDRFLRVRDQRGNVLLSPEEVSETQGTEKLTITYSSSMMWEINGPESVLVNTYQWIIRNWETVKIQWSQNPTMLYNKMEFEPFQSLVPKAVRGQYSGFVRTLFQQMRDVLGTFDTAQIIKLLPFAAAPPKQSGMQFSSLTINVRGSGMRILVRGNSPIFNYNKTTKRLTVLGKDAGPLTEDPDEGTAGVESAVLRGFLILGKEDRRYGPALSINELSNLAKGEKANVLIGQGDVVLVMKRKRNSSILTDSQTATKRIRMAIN
UniProt Q01650: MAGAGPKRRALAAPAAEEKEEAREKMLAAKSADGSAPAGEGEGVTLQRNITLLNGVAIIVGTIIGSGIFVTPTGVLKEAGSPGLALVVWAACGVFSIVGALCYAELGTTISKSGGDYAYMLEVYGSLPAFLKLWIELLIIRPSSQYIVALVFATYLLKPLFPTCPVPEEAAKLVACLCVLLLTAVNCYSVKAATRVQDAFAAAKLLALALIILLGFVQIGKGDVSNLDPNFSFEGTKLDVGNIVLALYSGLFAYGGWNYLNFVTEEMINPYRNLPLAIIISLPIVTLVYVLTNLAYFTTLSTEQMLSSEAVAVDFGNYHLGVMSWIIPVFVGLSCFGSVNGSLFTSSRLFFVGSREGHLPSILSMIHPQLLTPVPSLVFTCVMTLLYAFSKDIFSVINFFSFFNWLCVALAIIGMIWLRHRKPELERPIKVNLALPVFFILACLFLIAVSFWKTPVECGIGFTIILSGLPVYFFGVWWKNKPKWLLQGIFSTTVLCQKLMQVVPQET
UniProt P39687: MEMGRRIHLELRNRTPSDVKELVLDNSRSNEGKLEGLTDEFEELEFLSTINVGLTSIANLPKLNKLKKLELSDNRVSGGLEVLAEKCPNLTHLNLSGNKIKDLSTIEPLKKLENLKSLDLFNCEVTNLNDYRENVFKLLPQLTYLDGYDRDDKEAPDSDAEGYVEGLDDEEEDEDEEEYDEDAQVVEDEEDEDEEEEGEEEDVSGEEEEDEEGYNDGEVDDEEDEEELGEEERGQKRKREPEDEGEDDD
UniProt Q92688: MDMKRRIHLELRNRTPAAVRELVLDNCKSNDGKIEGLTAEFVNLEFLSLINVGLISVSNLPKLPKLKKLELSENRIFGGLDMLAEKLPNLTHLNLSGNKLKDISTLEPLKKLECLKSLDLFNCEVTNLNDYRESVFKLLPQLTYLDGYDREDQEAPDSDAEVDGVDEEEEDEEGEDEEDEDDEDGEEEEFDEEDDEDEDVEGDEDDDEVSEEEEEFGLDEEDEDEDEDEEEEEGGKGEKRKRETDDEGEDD
UniProt P35637: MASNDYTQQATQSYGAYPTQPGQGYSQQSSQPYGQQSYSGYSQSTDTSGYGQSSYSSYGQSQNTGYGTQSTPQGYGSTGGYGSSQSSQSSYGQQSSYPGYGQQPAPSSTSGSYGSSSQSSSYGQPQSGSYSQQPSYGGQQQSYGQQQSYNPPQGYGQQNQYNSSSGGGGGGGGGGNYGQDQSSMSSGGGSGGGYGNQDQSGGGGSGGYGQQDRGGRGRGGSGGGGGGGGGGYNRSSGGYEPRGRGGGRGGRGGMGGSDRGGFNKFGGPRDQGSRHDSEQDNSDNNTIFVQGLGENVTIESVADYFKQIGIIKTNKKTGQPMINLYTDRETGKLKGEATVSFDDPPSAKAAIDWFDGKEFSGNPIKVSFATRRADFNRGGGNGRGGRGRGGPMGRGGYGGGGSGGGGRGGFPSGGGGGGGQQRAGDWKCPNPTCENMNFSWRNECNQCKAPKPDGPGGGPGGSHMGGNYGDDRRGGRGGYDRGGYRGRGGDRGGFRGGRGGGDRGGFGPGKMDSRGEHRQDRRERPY
UniProt Q12905: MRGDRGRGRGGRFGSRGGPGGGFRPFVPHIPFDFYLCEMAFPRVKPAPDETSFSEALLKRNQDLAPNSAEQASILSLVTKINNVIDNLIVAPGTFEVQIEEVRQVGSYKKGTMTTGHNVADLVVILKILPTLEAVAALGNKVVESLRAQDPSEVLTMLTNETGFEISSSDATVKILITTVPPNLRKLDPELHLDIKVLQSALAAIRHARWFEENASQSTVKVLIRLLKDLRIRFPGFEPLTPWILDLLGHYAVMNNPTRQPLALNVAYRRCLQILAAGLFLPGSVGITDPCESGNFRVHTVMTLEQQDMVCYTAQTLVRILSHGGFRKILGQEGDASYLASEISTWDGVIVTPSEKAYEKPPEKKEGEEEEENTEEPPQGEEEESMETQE
UniProt P62491: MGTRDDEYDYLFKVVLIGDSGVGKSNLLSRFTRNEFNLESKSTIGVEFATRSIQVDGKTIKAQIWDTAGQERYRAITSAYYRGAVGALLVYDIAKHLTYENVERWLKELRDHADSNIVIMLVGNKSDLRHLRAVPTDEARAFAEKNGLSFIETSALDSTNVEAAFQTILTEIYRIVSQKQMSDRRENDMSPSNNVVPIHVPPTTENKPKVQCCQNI
UniProt Q13148: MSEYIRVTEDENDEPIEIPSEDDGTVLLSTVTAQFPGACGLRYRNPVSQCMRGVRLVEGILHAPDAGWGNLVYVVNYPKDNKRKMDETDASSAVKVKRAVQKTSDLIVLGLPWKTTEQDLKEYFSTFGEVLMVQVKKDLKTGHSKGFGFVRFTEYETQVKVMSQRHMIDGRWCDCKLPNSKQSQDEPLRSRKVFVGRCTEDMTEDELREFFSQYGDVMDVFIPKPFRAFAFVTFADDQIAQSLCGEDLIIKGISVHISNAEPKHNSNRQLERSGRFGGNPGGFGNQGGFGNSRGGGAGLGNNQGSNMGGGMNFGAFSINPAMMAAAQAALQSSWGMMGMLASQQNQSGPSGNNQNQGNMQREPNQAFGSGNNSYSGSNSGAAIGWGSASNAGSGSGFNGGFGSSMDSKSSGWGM

Tests used:
[1] = target: Influenza A virus matrix protein 1 (M1), strain A/WSN/33 (H1N1) (influenza A virus A/WSN/33 (H1N1)) (UniProt P05777)
[2] = target: Influenza A virus nucleoprotein (NP), strain A/WSN/33 (H1N1) (influenza A virus A/WSN/33 (H1N1)) (UniProt P15682); test: proximity ligation
[3] = target: Influenza A virus nucleoprotein (NP), strain A/WSN/33 (H1N1) (influenza A virus A/WSN/33 (H1N1)) (UniProt P15682)
[4] = target: T1, NONO (human (endogenous in A549)) (UniProt Q15233); test: co-IP
T1 sequence: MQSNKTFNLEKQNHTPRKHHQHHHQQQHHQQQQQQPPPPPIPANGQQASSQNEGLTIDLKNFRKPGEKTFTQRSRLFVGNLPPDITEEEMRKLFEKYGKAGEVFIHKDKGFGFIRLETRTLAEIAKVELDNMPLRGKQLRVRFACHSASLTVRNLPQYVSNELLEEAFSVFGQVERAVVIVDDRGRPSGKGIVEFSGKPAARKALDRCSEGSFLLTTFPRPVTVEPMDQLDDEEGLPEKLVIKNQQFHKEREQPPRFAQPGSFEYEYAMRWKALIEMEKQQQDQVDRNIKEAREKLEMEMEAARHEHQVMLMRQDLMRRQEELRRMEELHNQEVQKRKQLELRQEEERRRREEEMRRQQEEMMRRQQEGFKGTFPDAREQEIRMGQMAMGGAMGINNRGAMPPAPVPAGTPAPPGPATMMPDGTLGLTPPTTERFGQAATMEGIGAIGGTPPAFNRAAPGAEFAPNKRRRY

[5] = target: T1, NONO (human (endogenous in A549))
[6] = target: Influenza A virus polymerase subunit PB2, strain A/WSN/33 (H1N1) (influenza A virus A/WSN/33 (H1N1)) (UniProt P03427)
[7] = target: SLC7A5 (human (endogenous in A549)) (UniProt Q01650); test: proximity ligation
[8] = target: Influenza A virus nucleoprotein (NP), strain A/WSN/33 (H1N1) (influenza A virus A/WSN/33 (H1N1)) (UniProt P15682); remark: listed apart in the source
[9] = target: T2, Twin-Strep-tagged NONO expressed in HEK293T cells (UniProt Q15233); test: co-IP
T2 sequence: T1 sequence

ANP32A (from UniProt P39687 1-249)
binding [1]: binds

ANP32B (from UniProt Q92688 1-251)
binding [1]: binds

FUS (from UniProt P35637 1-526)
binding [2]: binds

ILF2 (from UniProt Q12905 1-390)
binding [2]: binds
binding [3]: binds

Influenza A virus nucleoprotein (NP), strain A/WSN/33 (H1N1) (from UniProt P15682 1-498)
binding [4]: binds
binding [5]: binds

Influenza A virus polymerase subunit PB2, strain A/WSN/33 (H1N1) (from UniProt P03427 1-759)
binding [2]: binds

RAB11A (from UniProt P62491 1-216)
binding [6]: binds

SLC3A2 (from UniProt P08195 1-529)
binding [7]: binds

TDP-43 (TARDBP) (from UniProt Q13148 1-414)
binding [8]: binds

WSN NP expressed in HEK293T cells (from UniProt P15682 1-498)
binding [9]: binds
